Experimental data taken from paper doi:10.1101/679431.
Results are given in words; binding and its absence hold for the method and conditions named. Binding seen in cells or lysates may run through a third protein. These calls come from enrichment with a bait or labelling near it, and not all partners need be listed. No binding means not detected with the bait. Where a sequence is shown, tags or fusion partners need not be part of it.

Biological target: T1, WT TRAP1 with C-terminal HA tag (pcDNA3.1 (+) MTS-HA vector) (human), Q12931
T1 chain: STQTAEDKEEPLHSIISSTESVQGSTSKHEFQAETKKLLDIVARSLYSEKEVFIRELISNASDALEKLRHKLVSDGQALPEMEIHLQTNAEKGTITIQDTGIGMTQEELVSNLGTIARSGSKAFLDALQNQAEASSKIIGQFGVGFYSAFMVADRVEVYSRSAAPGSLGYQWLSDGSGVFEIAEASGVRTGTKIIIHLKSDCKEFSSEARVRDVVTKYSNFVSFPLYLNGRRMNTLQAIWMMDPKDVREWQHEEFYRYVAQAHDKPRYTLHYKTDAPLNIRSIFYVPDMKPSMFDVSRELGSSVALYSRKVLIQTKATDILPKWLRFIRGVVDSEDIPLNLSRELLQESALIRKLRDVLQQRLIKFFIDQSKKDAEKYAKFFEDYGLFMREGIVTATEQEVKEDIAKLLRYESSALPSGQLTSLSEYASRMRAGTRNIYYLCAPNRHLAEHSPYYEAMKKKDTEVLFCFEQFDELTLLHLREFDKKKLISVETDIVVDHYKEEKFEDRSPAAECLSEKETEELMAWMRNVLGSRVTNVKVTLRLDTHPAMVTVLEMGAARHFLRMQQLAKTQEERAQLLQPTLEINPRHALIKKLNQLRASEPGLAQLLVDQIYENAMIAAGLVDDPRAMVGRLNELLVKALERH
Assay: affinity purification with mass spectrometry
Details: remark: other sources report otherwise

- binding: no binding
B1: PINK1, Q9BXM7 78-581 (protein)
chain: AARLQRQFVVRAWGCAGPCGRAVFLAFGLGLGLIEEKQAESRRAVSACQEIQAIFTQKSKPGPDPLDTRRLQGFRLEEYLIGQSIGKGCSAAVYEATMPTLPQNLEVTKSTGLLPGRGPGTSAPGEGQERAPGAPAFPLAIKMMWNISAGSSSEAILNTMSQELVPASRVALAGEYGAVTYRKSKRGPKQLAPHPNIIRVLRAFTSSVPLLPGALVDYPDVLPSRLHPEGLGHGRTLFLVMKNYPCTLRQYLCVNTPSPRLAAMMLLQLLEGVDHLVQQGIAHRDLKSDNILVELDPDGCPWLVIADFGCCLADESIGLQLPFSSWYVDRGGNGCLMAPEVSTARPGPRAVIDYSKADAWAVGAIAYEIFGLVNPFYGQGKAHLESRSYQEAQLPALPESVPPDVRQLVRALLQREASKRPSARVAANVLHLSLWGEHILALKNLKLDKMVGWLLQQSAATLLANRLTEKCCVETKMKMLFLANLECETLCQAALLLCSWRAAL
